Source: PubChem BioAssay AID2549 (National Center for Advancing Translational Sciences (NCATS), 2010)
The campaign covered roughly 240,000 compounds. About 1,300 (0.54%) were called active. The shares of active, inactive and inconclusive entries below differ from those in the screen. Calls come from the whole dose curve; as a rule, active = well fitted inhibition curve with a large enough effect; inconclusive = small, poorly fitted or top-dose-only effect; inactive = flat fitted curve, though single readings scatter. Where the call is inconclusive, the potency comes from a doubtful curve fit.
Note: nearly all actives have a fitted effect of over 30% in size.
Potency is the fitted concentration of half-maximal effect.
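Throughout, for activity, negative = inhibition: plate controls were vehicle for no effect and no enzyme for full effect.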

Chains of the proteins cited; added tags and fusions are not shown. Lines headed by an entry give the natural chain unless they say otherwise; changes in a name come on top.
UniProt P46063: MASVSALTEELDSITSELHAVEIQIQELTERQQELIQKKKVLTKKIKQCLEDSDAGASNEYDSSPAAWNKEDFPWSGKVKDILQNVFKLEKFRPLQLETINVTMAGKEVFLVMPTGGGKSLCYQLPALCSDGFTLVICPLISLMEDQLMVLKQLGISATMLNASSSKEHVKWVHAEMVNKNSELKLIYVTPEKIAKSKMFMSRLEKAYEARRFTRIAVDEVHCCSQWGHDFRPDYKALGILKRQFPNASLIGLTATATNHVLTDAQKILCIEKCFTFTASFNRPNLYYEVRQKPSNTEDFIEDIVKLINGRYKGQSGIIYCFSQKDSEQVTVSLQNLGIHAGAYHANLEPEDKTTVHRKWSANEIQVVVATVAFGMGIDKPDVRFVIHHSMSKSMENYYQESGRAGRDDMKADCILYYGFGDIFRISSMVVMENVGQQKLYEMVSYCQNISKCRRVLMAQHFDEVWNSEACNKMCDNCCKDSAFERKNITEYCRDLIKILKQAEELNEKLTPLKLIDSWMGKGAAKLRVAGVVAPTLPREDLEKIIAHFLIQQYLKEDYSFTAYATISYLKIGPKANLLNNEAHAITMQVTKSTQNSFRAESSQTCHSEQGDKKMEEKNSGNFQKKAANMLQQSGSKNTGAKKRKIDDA

The molecules below were run against ATP-dependent DNA helicase Q1 (Homo sapiens) (UniProt P46063) (assay: qHTS Assay for Inhibitors of RecQ-Like Dna Helicase 1 (RECQ1)). Settings: RECQ1 DNA unwinding, red fluorescence kinetic read; activity, negative = inhibition: at 57.3 µM (top of the series); series mostly up to 57.3 µM.
From the text: Survival of cells and the faithful propagation of the genome depend on elaborate mechanisms of detecting and repairing DNA damage. Treatment of advanced cancer relies on radiation therapy or chemotherapy, which kill cancer cells by causing extensive DNA damage. It is often found, that cancer cells develop resistance to therapy through enhanced activity of DNA repair functions; this has led to an increased interest in developing drugs that interfere with DNA repair, which could sensitize cancer cells to conventional therapy.
This validation qHTS assay pertains to human RECQ1, which is important in resolving abnormal DNA structures formed during replication or homologous recombination. Shutting down the expression of RECQ1 leads to chromosomal instability and higher radiation sensitivity in cultured cells.
The validation assay was a fluorescence quenching based kinetic qHTS for RECQ1 Helicase DNA unwinding. The activity was measured as ATP-dependent separation of a 20-bp DNA duplex extended by 30-nt single-stranded tails (forked duplex). The forked DNA substrate was tagged with rhodamine fluorophore (carboxytetramethyl rhodamine, TAMRA) and BHQ-2 (Black Hole Quencher 2) dark quencher. Strand separation results in an increase in the fluorescence of TAMRA (excitation 525 nm, emission 598 nm). This substrate construct operates in a red-shifted region where very few compound library members have been noted to fluoresce (PubChem AIDs 593 and 594). An additional feature of the assay is the inclusion of 2.5 ug/ml poly (dIdC), to reduce interference by compounds such as DNA intercalators, a major source of false inhibitors.
Opher Gileadi, Structural Genomics Consortium, University of Oxford
Screening Center PI: Austin, C.P.
Screening Center: NIH Chemical Genomics Center [NCGC]
Three uL of reaction buffer (25 mM Tris-HCl (pH 8.0), 5 mM NaCl, 2 mM MgCl2, 1mM DTT, 0.01% Tween- 20, and 2.5 ug/ml poly(dI-dC), including enzyme (50 nM RECQ1T1), were dispensed into a 1536-well Greiner black assay plate via solenoid-valve based nanoliter dispensers. Compounds (23 nl each in columns 5-48) and control (23 nl each in column 2 as dose-response) were transferred via a Kalypsys pintool equipped with a 1536-pin array. The plates were incubated for 15 min at room temperature, and then 1 ul of substrates (200 nM DNA and 2 mM ATP, final concentrations) was added to start the reaction. The plate was transferred into a ViewLux high-throughput CCD imager where the reaction progress was measured in a discontinuous kinetic mode (two reads spaced 2 hours apart, with intermediate room temperature incubation of the covered assay plate) by using standard red-fluorescence optics (excitation filter 525 nm, emission filter 598 nm). Enzyme-free and vehicle (DMSO) controls were included for signal normalization.
In the case of `O=C(C1=C[C@@H](c2csc3ccccc23)C[C@@H](OCCCCO)O1)N1CCN(Cc2ccc3c(c2)OCO3)CC1`, the Potency was inconclusive: 39.8 µM [inhibitor, single point].
`COc1ccc(S(=O)(=O)/N=C2/NC(=O)/C(=C/c3ccco3)S2)cc1` was tested, and the Potency was inconclusive: 39.8 µM [inhibitor, single point].
With `Cc1ccc(CNC(=O)CCNC(=O)Cn2ccc3ccccc3c2=O)o1` the Potency was inconclusive: 0.794 µM [inhibitor, full curve, poor fit].
For `Cc1csc2ncc(C(=O)NCc3ccco3)c(=O)n12`, the Potency was inconclusive: 39.8 µM [inhibitor, single point].
For `CCN(CC)S(=O)(=O)c1ccc(Cl)c(NC(=O)COC(=O)/C=C/c2cc(OC)c(OC)c(OC)c2)c1`, the Potency was inconclusive: 31.6 µM [inhibitor, partial curve].
In the case of `C=CC[C@@H]1C=C[C@@H](O/N=C\c2ccc(C(=O)N3[C@H](c4ccc(C)cc4)[C@@H](C)CC[C@H]3C(=O)OC)cc2)[C@@H](CO)O1`, the outcome was “inactive [at 11.5 µM]”.
In the case of `Cc1cc(C(=O)O)ccc1-n1c(C)cc(/C=C(/C#N)C(=O)Nc2ccccc2)c1C`, the Potency was inconclusive: 0.794 µM [inhibitor, single point].
For `Nc1nnc(CC(=O)N/N=C/c2cccc([N+](=O)[O-])c2)s1`, the “activity, negative = inhibition” value was inactive: -11.6%.
With `O=C(O)c1ccccc1C(=O)Nc1n[nH]c(=S)s1` the “activity, negative = inhibition” value was inactive: -4.66%.
For `Cc1cccc(NC(=O)COc2ccc(/C=C\c3[nH]c(=O)[nH]c(=O)c3[N+](=O)[O-])cc2)c1`, the Potency was inconclusive: 4.47 µM [inhibitor, single point].
In the case of `COc1cccc(-c2noc(C(C)n3nc(C)c([N+](=O)[O-])c3C)n2)c1` (stereo not drawn), the Potency was inconclusive: 35.5 µM [inhibitor, single point].
`CCC1(CC)NC(=O)N(CC(=O)Nc2sc3c(c2C(N)=O)CCC3)C1=O` was tested, and the Potency was active: 22.4 µM.
In the case of `COC(=O)CN(c1ccccc1C)S(C)(=O)=O`, the Potency was inconclusive: 6.31 µM [inhibitor, single point].
With `COc1ncc2nc(-c3ccccc3)c(=O)n(C[C@H]3CCCO3)c2n1` the “activity, negative = inhibition” value was inactive: -6.34%.
`Cc1nc([N+](=O)[O-])c(C(=O)OCc2cccc(Br)c2)n1C` was tested, and the Potency was inconclusive: 0.282 µM [inhibitor, full curve].
In the case of `CCOC(=O)C1CCN(C(=O)c2ccccc2NS(=O)(=O)c2ccc(F)c(F)c2)CC1`, the Potency was inconclusive: 7.94 µM [inhibitor, single point].
In the case of `CCc1nc2oc3ccccc3c(=O)c2c(=O)n1-c1ccc(C)cc1`, the Potency was inconclusive: 17.8 µM [inhibitor, partial curve].
`O=C(Cc1ccc(S(=O)(=O)N2CCOCC2)s1)NCCC(c1ccccc1)c1ccccc1` was tested, and the Potency was inconclusive: 39.8 µM [inhibitor, partial curve].
In the case of `O=C(Oc1ccc2c(=O)c(Cl)coc2c1)c1ccncc1`, the “activity, negative = inhibition” value was inactive: 1.92%.
For `COC(=O)c1cccc(NC(=O)CSc2nnc(COc3cccc(C)c3)n2C)c1`, the Potency was inconclusive: 5.62 µM [inhibitor, partial curve, poor fit].
`CSc1ccc(C2c3[nH]c4ccccc4c3CCN2C(=O)c2cc(C)n(C)n2)cc1` (stereo not drawn) was tested, and the Potency was inconclusive: 35.5 µM [inhibitor, single point].
For `Cc1ccc(CSCCNS(C)(=O)=O)cc1`, the Potency was inconclusive: 4.47 µM [inhibitor, single point].
In the case of `O=c1oc2c3c4c(cc2s1)CCCN4CCC3`, the Potency was active: 28.2 µM.
For `CC(=O)n1cc([C@H]2C=C(C(=O)O)O[C@@H](OCCCCO)C2)c2ccccc21`, the Potency was inconclusive: 0.0316 µM [inhibitor, full curve, poor fit].
With `O=c1cc(O)n(-c2ccccc2)c(=S)[nH]1` the Potency was inconclusive: 39.8 µM [inhibitor, single point].
With `CC(=O)Nc1cccc(C(=O)/C=C/c2ccc(F)cc2)c1` the Potency was inconclusive: 39.8 µM [inhibitor, single point].
With `Cc1ccc(OCc2ccc(C(=O)Nc3ccc(C(N)=O)cc3)o2)c([N+](=O)[O-])c1` the Potency was inconclusive: 28.2 µM [inhibitor, single point].
For `N#CC1=C(SCC(=O)NCc2ccccc2)NC(=O)CC1c1ccco1` (stereo not drawn), the Potency was inconclusive: 8.91 µM [inhibitor, single point].
With `S=c1[nH]nc(-c2cccnc2)n1/N=C/C=C/c1ccco1` the Potency was inconclusive: 35.5 µM [inhibitor, single point].
`Cc1cc2oc(=O)cc(CN3CCN(S(=O)(=O)c4cccs4)CC3)c2cc1C` was tested, and the Potency was inconclusive: 0.794 µM [inhibitor, full curve].
For `O=C(/C=C\c1ccco1)c1ccc(NC(=O)c2ccco2)cc1`, the Potency was inconclusive: 39.8 µM [inhibitor, single point].
For `Cc1cc(C)cc(N=Cc2ccc([N+](=O)[O-])s2)c1`, the “activity, negative = inhibition” value was inactive: -0.0094%.
For `Cc1ccc(/C=N/N2C(=S)SC(C)(C)C2N(O)C(=O)Nc2ccc([N+](=O)[O-])cc2)cc1` (stereo not drawn), the Potency was active: 31.6 µM.
With `CC(C)(C)OC(=O)N/N=C/c1ccc(Br)cc1` the Potency was inconclusive: 1.58 µM [inhibitor, full curve].
In the case of `N#CC1=C(N)NC(SCc2ccc(Br)cc2)=C(C#N)C12CCCCC2`, the Potency was inconclusive: 31.6 µM [inhibitor, partial curve].
`CCCCNc1nc(C)nc2c1nc(-c1ccccc1)n2C1CCN(Cc2ccccc2)C1` (stereo not drawn) was tested, and the “activity, negative = inhibition” value was inactive: 1.46%.
`COc1ccc(NC(=S)NCCC(c2ccccc2)c2ccccc2)c(OC)c1` was tested, and the Potency was inconclusive: 39.8 µM [inhibitor, single point].
`CCCOc1ccc(C(=O)N/N=C/c2ccc(-c3ccc(S(=O)(=O)Nc4ncccn4)cc3)o2)cc1` was tested, and the Potency was inconclusive: 35.5 µM [inhibitor, single point].
In the case of `O=C(Nc1ccccc1)c1ccc(CSc2ncccn2)cc1`, the “activity, negative = inhibition” value was inactive: -4.19%.
With `C[C@@H]1OC(Oc2ccccc2-c2cc(=O)c3c(O)cc(O)c([C@@H]4O[C@H](CO)[C@@H](O)[C@H](O)[C@H]4O)c3o2)[C@H](O)[C@H](O)[C@H]1O` (stereo partly drawn) the “activity, negative = inhibition” value was inactive: -1.2%.
With `CN1CCN(C(=O)c2ccccc2Nc2ccc(SC(F)F)cc2)CC1` the “outcome” value was “inactive”.
For `CCCCC(=O)Nc1sc2c(c1C(=O)OCC)CCC(C=O)=C2Cl`, the Potency was inconclusive: 35.5 µM [inhibitor, single point].
In the case of `Cc1nc(/N=C(\N)NC(=O)NC2CCCCC2)nc2ccccc12`, the Potency was inconclusive: 0.112 µM [inhibitor, full curve, poor fit].
In the case of `COc1ccc(/C=N/NC(=O)CCN2CCN(c3ccccc3)CC2)c(OC)c1OC`, the “activity, negative = inhibition” value was inactive: -5.17%.
With `O=c1cc(-c2ccc(O)c(O)c2)oc2cc(OC3OC(CO)C(O)C(O)C3O)cc(O)c12` (stereo not drawn) the Potency was active: 20 µM.
For `O=C(Cn1cnnn1)OCC(=O)c1ccc(Cl)s1`, the Potency was inconclusive: 31.6 µM [inhibitor, single point].
For `O=C(c1ccc([N+](=O)[O-])cc1)N1CCSC1c1cccc(Cl)c1` (stereo not drawn), the Potency was inconclusive: 0.282 µM [inhibitor, full curve].
With `CC(C)(C)c1ccc(C(=O)CS(=O)(=O)c2ccccc2)cc1` the Potency was inconclusive: 39.8 µM [inhibitor, single point].
For `CC(C)CN(C(=O)COC(=O)c1nc(Cl)ccc1Cl)C1CCS(=O)(=O)C1` (stereo not drawn), the “outcome” value was “inactive”.
For `COc1ccc(NC(=O)CSc2nc(O)cc(=O)n2C)cc1`, the Potency was inconclusive: 3.98 µM [inhibitor, partial curve].
For `O=c1ccc2cc3c4c(c2o1)CCCN4CCC3`, the Potency was inconclusive: 39.8 µM [inhibitor, single point].
For `C/C(=C\c1ccco1)C1Nc2cccc3cccc(c23)N1`, the Potency was inconclusive: 1.78 µM [inhibitor, full curve].
With `COc1cc(OC)c2ccc(=O)oc2c1C(CCN1CCCC1)c1ccc(N(C)C)cc1` (stereo not drawn) the Potency was inconclusive: 3.55 µM [inhibitor, single point].
With `CCOc1cc(/C=N/NC(=O)c2ccc(=O)n(C)c2)ccc1O` the “outcome” value was “inactive”.
With `CCc1n[nH]c(=S)n1/N=C/c1cc(OC)cc([N+](=O)[O-])c1O` the Potency was inconclusive: 39.8 µM [inhibitor, single point].
With `c1ccc2sc(N3CCOCC3)nc2c1` the “activity, negative = inhibition” value was inactive: 4.17%.
In the case of `Nc1c(C(=O)Nc2ccccc2F)sc2nc(-c3cccnc3)ccc12`, the Potency was active: 31.6 µM.
For `CCc1cc(C(c2ccccc2OC)N2CCOCC2)c(NC(=O)c2ccccc2)s1` (stereo not drawn), the Potency was inconclusive: 39.8 µM [inhibitor, single point].
With `CC1(OC(=O)C2CCCC2)C(=O)C=C2C=C(c3ccsc3)N(CCN3CCOCC3)C=C2C1=O` (stereo not drawn) the Potency was inconclusive: 0.158 µM [inhibitor, full curve, poor fit].
In the case of `CSC1=N/C(=C\c2ccc(Br)o2)C(=O)S1`, the Potency was inconclusive: 39.8 µM [inhibitor, single point].
For `NC(=O)COC(=O)c1cc(-c2ccco2)nc2ccccc12`, the Potency was inconclusive: 39.8 µM [inhibitor, single point].
In the case of `COc1ccccc1CN1C(=O)c2cccc3cccc(c23)C1=O`, the Potency was active: 25.1 µM.
For `COc1ccccc1/C=C/C=N/NC(=O)c1cc(-c2ccco2)[nH]n1`, the Potency was inconclusive: 31.6 µM [inhibitor, single point].
`CC(=O)n1cc([C@@H]2C=C(C(=O)O)O[C@H](OCc3ccc(CO)cc3)C2)c2ccccc21` was tested, and the “activity, negative = inhibition” value was inactive: -2.56%.
`Cc1cc2cc(CNS(=O)(=O)c3ccc4ccccc4c3)ccc2n1C` was tested, and the Potency was inconclusive: 3.55 µM [inhibitor, full curve, poor fit].
With `Cc1nc(C/C(=N\Nc2ccccc2)c2ccc(O)cc2O)cs1` the “activity, negative = inhibition” value was inactive: -1.71%.
For `O=C(N/N=C/C=C/c1ccco1)c1cccs1`, the Potency was active: 35.5 µM.
With `Cc1onc(-c2ccccc2)c1C(=O)NC(=S)NNC(=O)c1ccccc1O` the “outcome” value was “inactive”.
